# Data published in PMC11923244.
# Protein sequences, listed by entry. Tags and fused reporters are not part of them. Residues count along the entry.
# UniProt Q9QUN7, residues 25-784: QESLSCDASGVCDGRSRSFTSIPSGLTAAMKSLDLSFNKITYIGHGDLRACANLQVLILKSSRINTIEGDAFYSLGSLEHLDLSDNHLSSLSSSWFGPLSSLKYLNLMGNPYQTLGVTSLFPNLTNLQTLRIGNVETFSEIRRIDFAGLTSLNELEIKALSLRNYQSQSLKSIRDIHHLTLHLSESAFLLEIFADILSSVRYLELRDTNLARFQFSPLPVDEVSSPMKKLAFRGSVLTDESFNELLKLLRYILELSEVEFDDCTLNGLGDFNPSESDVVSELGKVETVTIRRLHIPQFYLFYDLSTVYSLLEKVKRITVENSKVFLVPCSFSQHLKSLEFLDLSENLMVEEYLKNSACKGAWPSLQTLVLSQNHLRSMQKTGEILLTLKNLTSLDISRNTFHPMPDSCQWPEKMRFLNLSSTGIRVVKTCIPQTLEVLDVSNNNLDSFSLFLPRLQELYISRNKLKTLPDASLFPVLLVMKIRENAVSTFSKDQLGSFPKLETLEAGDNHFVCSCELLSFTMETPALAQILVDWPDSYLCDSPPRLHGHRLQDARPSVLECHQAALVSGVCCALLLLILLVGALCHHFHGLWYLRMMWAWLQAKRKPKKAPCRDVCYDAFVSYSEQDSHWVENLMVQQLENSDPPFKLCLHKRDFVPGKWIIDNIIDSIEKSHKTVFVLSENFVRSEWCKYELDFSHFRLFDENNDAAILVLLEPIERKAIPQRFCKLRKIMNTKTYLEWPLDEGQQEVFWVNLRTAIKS
# No constants are given. Whether binding was seen depends on the method and setting. Binding seen in cells or lysates may run through a third protein. Some binding calls cover weakened binding; strength is not graded here.
# Target: FLAG-tagged TLR2 (toll-like receptor 2) (UniProt Q9QUN7)
# Test: co-IP; podocytes transfected with a FLAG-tagged plasmid; lysate incubated overnight at 4 °C with FLAG-tag magnetic beads (Beyotime kit P2181S; IgG beads as control), washed three times; Western blot for TLR2 and NAT10
binder,measurement,value
"N-acetyltransferase 10 (NAT10), endogenous in podocytes (enzyme, UniProt Q8K224 1-1024) MNRKKVDNRIRILIENGVAERQRSLFVVVGDRGKDQVVILHHMLSKATVKARPSVLWCYKKELGFSSHRKKRMRQLQKKIKSGTLNLKQDDPFELFVAATNIRYCYYNETHKILGNTFGMCVLQDFEALTPNLLARTVETVEGGGLVVILLRTMNSLKQLYTMTMDVHSRYRTEAHQDVVGRFNERFILSLASCKKCLVIDDQLDILPISSHVASIEALPPQAPDENLSPAALELLELKESLQDTQPVGVLVDCCKTLDQAKAVLKFIEGISEKTLRSTVALTAARGRGKSAALGLAIAGAVAFGYSNIFVTSPSPDNLHTLFEFVFKGFDALQYQEHLDYEIVQSLNPEFNKAVIRVNVFREHRQTIQYIHPADAVKLGQAELVVIDEAAAIPLPLVKSLLGPYLVFMASTINGYEGTGRSLSLKLIQQLRQQSAQSQVSTTAENKTTTTARLASARTLHEVSLQESIRYAPGDAVEKWLNDLLCLDCLNITRIVSGCPLPEACELYYVNRDTLFCYHKASEVFLQRLMALYVASHYKNSPNDLQMLSDAPAHHLFCLLPPVPPTQNALPEVLAVVQVCLEGEISRQSILNSLSRGKKASGDLIPWTVSEQFQDPDFGGLSGGRVVRIAVHPDYQGMGYGSRALQLLQMYYEGKFPCLEEKVLETPQEIRTVSSEAVSLLEEVITPRKDLPPLLLKLNERPAERLDYLGVSYGLTPRLLKFWKRAGFVPVYLRQTPNDLTGEHSCIMLKTLADEDEAEQGAWLAAFWKDFRRRFLALLSYQFSTFSPALSLNIIQNRNVAKSALPALGREHLEALFLPYDLKRLEMYSRNMVDYHLIMDLIPAISRLYFLNQLGDLSLSAAQSALLLGIGLQHKSVDQLEKEIELPSGQLMGLFNRIIRKVVKLFNDVQEKAIEEQMVAVKDVVMEPTMKTLSDDLDEAAKEFQEKHKKEVGKLKDMDLSQYVIRGDDEEWNEVLSKAGQNASIVSLKSDKKRKLETKQEPKQSKKLKKRDNNRKDMKLKRKK",binding,binds
